Measurements: patent publication US11519017B2, “Kit for diagnosing infection with Methicillin-resistant Staphylococcus aureus (MRSA) by detecting magnesium ions” (Bioacts Corporation, priority 2017, dated 2022)
Some entries repeat one wording, which the source may state once for all of them.

Columns and labels:
mecA gene = assay: Detection of MRSA using loop-mediated isothermal amplification (LAMP), color change; set-up: species or system Methicillin-resistant Staphylococcus aureus; conditions: 63° C. 30 minutes then 80° C. 5 minutes; FIG. 2
MRSA DNA = assay: Detection sensitivity test of MRSA using LAMP; set-up: species or system Methicillin-resistant Staphylococcus aureus; conditions: for detectable amount of MRSA DNA (up to): visual color, FIG. 4; for ease of visual detection of the color change: visual observation

| Compound | change in color development after LAMP (mecA gene) | detectable amount of MRSA DNA (up to) (MRSA DNA) [fg] | ease of visual detection of the color change (MRSA DNA) |
| --- | --- | --- | --- |
| O=[N+]([O-])c1ccc(O)c(N=Nc2cc(S(=O)(=O)O)c3ccccc3c2O)c1 [Chemical Formula 2] | changes in color development were observed | – | – |
| Nc1ccc2c(O)c(N=Nc3ccc([N+](=O)[O-])cc3O)c(S(=O)(=O)O)cc2c1 [Chemical Formula 3] | changes were not observed | – | – |
| O=[N+]([O-])c1cc(N=Nc2c(S(=O)(=O)O)cc3cc(Nc4ccccc4)ccc3c2O)c(O)c([N+](=O)[O-])c1 [Chemical Formula 4] | changes were not observed | – | – |
| CC1=NN(c2ccccc2)C(O)C1N=Nc1cc([N+](=O)[O-])cc(S(=O)(=O)O)c1O (stereo not shown) [Chemical Formula 5] | changes in color development were observed | 100 | errors in detection during visual observation were caused due to color change |
| O=[N+]([O-])c1cc(N=Nc2c(O)cccc2O)c(O)c(S(=O)(=O)O)c1 [Chemical Formula 6] | changes were not observed | – | – |
| O=[N+]([O-])c1cc(N=Nc2c(S(=O)(=O)O)cc3cc(Nc4ccccc4)ccc3c2O)c(O)c(S(=O)(=O)O)c1 [Chemical Formula 7] | changes in color development were observed | 1e+09 | easy to be visually detected due to a clear color change |
| O=[N+]([O-])c1cc(N=Nc2c(O)ccc3ccccc23)c(O)c([N+](=O)[O-])c1 [Chemical Formula 8] | changes were not observed | – | – |
| O=[N+]([O-])c1cc(S(=O)(=O)O)cc(N=Nc2cc(S(=O)(=O)[O-])c3ccccc3c2O)c1O.[Na+] [Chemical Formula 9] | changes in color development were observed | – | – |
| O=C(Nc1ccc(S(=O)(=O)O)c2cc(S(=O)(=O)O)c(N=Nc3cc([N+](=O)[O-])cc(S(=O)(=O)O)c3O)c(O)c12)c1ccccc1 [DKLS] | changes in color development were observed | – | – |
